# Where a chain is given by its changes, count along the chain named. The list shows a part of the results. For some assays here: At the low end of the ranking the order means little. For some assays here: The source does not settle which construct or isoform was used.
# Legend:
# Settings in all cases: yeast three-hybrid, YBZ-1, SC-Leu-His + 0.5 mM 3-AT, 4 days
# [1] = molecular target: T1, PUM1 PUF domain R2-VFQ R3-THE R4-TFR N899V + Y900F + C935T + R936H + Q939E + N971T + H972F + Q975R (UniProt Q14671)
# T1 sequence: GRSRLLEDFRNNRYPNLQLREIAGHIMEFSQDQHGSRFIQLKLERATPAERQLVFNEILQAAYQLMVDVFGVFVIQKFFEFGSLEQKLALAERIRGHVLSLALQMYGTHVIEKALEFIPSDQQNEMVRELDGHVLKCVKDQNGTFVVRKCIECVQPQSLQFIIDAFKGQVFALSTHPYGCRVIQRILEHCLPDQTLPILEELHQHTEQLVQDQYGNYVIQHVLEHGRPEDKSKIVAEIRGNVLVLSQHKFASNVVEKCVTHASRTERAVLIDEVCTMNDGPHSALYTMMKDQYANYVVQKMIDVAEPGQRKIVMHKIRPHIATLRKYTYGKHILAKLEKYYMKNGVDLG
# [2] = molecular target: T2, PUM1 PUF domain R5-PHQ R6-SWD C1007P + R1008H + N1043S + Y1044W + Q1047D (UniProt Q14671)
# T2 sequence: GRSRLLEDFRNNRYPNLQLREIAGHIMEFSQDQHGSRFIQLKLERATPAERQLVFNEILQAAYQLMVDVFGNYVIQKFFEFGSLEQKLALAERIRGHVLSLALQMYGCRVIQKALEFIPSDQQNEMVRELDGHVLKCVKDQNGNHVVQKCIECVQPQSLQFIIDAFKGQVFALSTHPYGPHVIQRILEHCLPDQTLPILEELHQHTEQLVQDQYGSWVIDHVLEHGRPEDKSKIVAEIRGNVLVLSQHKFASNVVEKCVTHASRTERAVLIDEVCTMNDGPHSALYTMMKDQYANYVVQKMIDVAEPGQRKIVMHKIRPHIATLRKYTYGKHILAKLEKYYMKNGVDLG
# [3] = molecular target: T3, PUM1 PUF domain R3-THE R4-TFR R7-NPG C935T + R936H + Q939E + N971T + H972F + Q975R + S1079N + N1080P + E1083G (UniProt Q14671)
# T3 sequence: T1 sequence with V72N, F73Y, S252N, N253P, E256G
# [4] = molecular target: T4, PUM1 PUF domain R3-THE R4-TFR R7-NPG C935T + R936H + Q939E + N971T + H972F + Q975R + S1079N + N1080P + E1083G (Homo sapiens) (UniProt Q14671)
# T4 sequence: T1 sequence with V72N, F73Y, S252N, N253P, E256G
# [5] = molecular target: T5, PUM1 PUF domain R6-SWD R7-NPG N1043S + Y1044W + Q1047D + S1079N + N1080P + E1083G (Homo sapiens) (UniProt Q14671)
# T5 sequence: T2 sequence with P180C, H181R, S252N, N253P, E256G
Sequence,binding signal (log2 enrichment (interaction score)) [1],binding signal (log2 enrichment (interaction score)) [2],binding signal (log2 enrichment (interaction score)) [3],binding signal (log2 enrichment (interaction score)) [4],binding signal (log2 enrichment (interaction score)) [5]
GGCUAGAACUAGUGGAUCCCCCGGCGCCCGGCGGCUCGAGCCCGGGUAAGUGGUAAUCGUCUGCAUGCCGCCGGGCGCCAUGCCUGCAGGUCGACUCUAGAAAACAUG,-5.44,-6.59,–,–,–
GGCUAGAACUAGUGGAUCCCCCGGCGCCCGGCGGCUCGAGCCCGGGUAAGGCCAAGAUGUCUGCAUGCCGCCGGGCGCCAUGCCUGCAGGUCGACUCUAGAAAACAUG,-6.12,–,-2.16,–,–
GGCUAGAACUAGUGGAUCCCCCGGCGCCCGGCGGCUCGAGCCCGGGUAAGUGGGCCUAGUCUGCAUGCCGCCGGGCGCCAUGCCUGCAGGUCGACUCUAGAAAACAUG,-5.76,< -7.35,–,-1.11,–
GGCUAGAACUAGUGGAUCCCCCGGCGCCCGGCGGCUCGAGCCCGGGUAAGUUGAGAACGUCUGCAUGCCGCCGGGCGCCAUGCCUGCAGGUCGACUCUAGAAAACAUG,-6.3,-7.6,–,< -1.35,–
GGCUAGAACUAGUGGAUCCCCCGGCGCCCGGCGGCUCGAGCCCGGGUAAGUGUAACAAGUCUGCAUGCCGCCGGGCGCCAUGCCUGCAGGUCGACUCUAGAAAACAUG,-5.71,< -8.42,–,-1.74,–
GGCUAGAACUAGUGGAUCCCCCGGCGCCCGGCGGCUCGAGCCCGGGUAAGUUUAAACGGUCUGCAUGCCGCCGGGCGCCAUGCCUGCAGGUCGACUCUAGAAAACAUG,-5.08,-7.68,–,-1.49,–
GGCUAGAACUAGUGGAUCCCCCGGCGCCCGGCGGCUCGAGCCCGGGUAAGGUGAAAAUGUCUGCAUGCCGCCGGGCGCCAUGCCUGCAGGUCGACUCUAGAAAACAUG,-5.23,-7.52,–,-1.77,–
GGCUAGAACUAGUGGAUCCCCCGGCGCCCGGCGGCUCGAGCCCGGGUAAGAAGAGUGAGUCUGCAUGCCGCCGGGCGCCAUGCCUGCAGGUCGACUCUAGAAAACAUG,-5.71,–,–,-1.07,–
GGCUAGAACUAGUGGAUCCCCCGGCGCCCGGCGGCUCGAGCCCGGGUAAGGUGACGCCGUCUGCAUGCCGCCGGGCGCCAUGCCUGCAGGUCGACUCUAGAAAACAUG,-5.63,–,-2.19,–,–
GGCUAGAACUAGUGGAUCCCCCGGCGCCCGGCGGCUCGAGCCCGGGUAAGGCUACAAGGUCUGCAUGCCGCCGGGCGCCAUGCCUGCAGGUCGACUCUAGAAAACAUG,-5.57,–,-2.59,–,–
GGCUAGAACUAGUGGAUCCCCCGGCGCCCGGCGGCUCGAGCCCGGGUAAGAGUAAACUGUCUGCAUGCCGCCGGGCGCCAUGCCUGCAGGUCGACUCUAGAAAACAUG,-4.89,< -7.16,–,–,–
GGCUAGAACUAGUGGAUCCCCCGGCGCCCGGCGGCUCGAGCCCGGGUAAGUAUUGAUCGUCUGCAUGCCGCCGGGCGCCAUGCCUGCAGGUCGACUCUAGAAAACAUG,-6.34,–,–,-1.89,-0.63
GGCUAGAACUAGUGGAUCCCCCGGCGCCCGGCGGCUCGAGCCCGGGUAAGUUGAAGAUGUCUGCAUGCCGCCGGGCGCCAUGCCUGCAGGUCGACUCUAGAAAACAUG,-5.78,-7.97,–,< -0.09,-1.05
GGCUAGAACUAGUGGAUCCCCCGGCGCCCGGCGGCUCGAGCCCGGGUAAGGCUGGGUAGUCUGCAUGCCGCCGGGCGCCAUGCCUGCAGGUCGACUCUAGAAAACAUG,-3.98,–,-2.04,–,–
GGCUAGAACUAGUGGAUCCCCCGGCGCCCGGCGGCUCGAGCCCGGGUAAGUUUACACAGUCUGCAUGCCGCCGGGCGCCAUGCCUGCAGGUCGACUCUAGAAAACAUG,-5.53,-6.93,-2.03,–,–
GGCUAGAACUAGUGGAUCCCCCGGCGCCCGGCGGCUCGAGCCCGGGUAAGCGGAUUUAGUCUGCAUGCCGCCGGGCGCCAUGCCUGCAGGUCGACUCUAGAAAACAUG,-4.95,-7.58,–,–,–

# Exported tab-delimited: part of the list above
Sequence	binding signal (log2 enrichment (interaction score)) [1]	binding signal (log2 enrichment (interaction score)) [2]	binding signal (log2 enrichment (interaction score)) [3]	binding signal (log2 enrichment (interaction score)) [4]	binding signal (log2 enrichment (interaction score)) [5]
GGCUAGAACUAGUGGAUCCCCCGGCGCCCGGCGGCUCGAGCCCGGGUAAGUUUAAACGGUCUGCAUGCCGCCGGGCGCCAUGCCUGCAGGUCGACUCUAGAAAACAUG	-5.08	-7.68	–	-1.49	–
GGCUAGAACUAGUGGAUCCCCCGGCGCCCGGCGGCUCGAGCCCGGGUAAGGUGAAAAUGUCUGCAUGCCGCCGGGCGCCAUGCCUGCAGGUCGACUCUAGAAAACAUG	-5.23	-7.52	–	-1.77	–

# — publication PMC8384837
